# Screening data, single-dose tests

Chains of the proteins cited; added tags and fusions are not shown.
UniProt P9WNZ1, whole entry: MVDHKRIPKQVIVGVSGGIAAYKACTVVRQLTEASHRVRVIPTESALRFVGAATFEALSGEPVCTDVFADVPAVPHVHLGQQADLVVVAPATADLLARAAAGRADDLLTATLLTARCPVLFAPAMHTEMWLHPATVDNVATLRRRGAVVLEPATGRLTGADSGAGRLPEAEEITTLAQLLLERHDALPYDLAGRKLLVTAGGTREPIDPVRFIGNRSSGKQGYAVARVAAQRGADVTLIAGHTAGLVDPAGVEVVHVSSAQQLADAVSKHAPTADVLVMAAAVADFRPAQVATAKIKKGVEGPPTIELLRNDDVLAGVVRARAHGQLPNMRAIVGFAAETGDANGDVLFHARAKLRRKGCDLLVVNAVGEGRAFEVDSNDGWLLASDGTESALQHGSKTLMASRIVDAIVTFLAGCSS

Measurements from “University of Dundee, Small-Polar-MMV Screening Library” (2021), ChEMBL document CHEMBL3988442.

Values are the deposited “Percent Effect”, in %. The controls that fix the scale are not given in the record; negative values are as filed. Compounds were drawn at random from those tested, without regard to their results. Two or more numbers in one place are separate tests of the same structure; such repeats can differ widely.

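Coenzyme A biosynthesis protein CoaBC, Mycobacterium tuberculosis (UniProt P9WNZ1). Enzyme assay of CoaBC with a phosphate dye (Biomol Green) read at 650 nm. Compounds at 30 µM. Direction is inferred from only a few compounds that gave an IC50; most scored high, so higher reads as stronger inhibition. Most strong results did not repeat in a second test. Size under these conditions: about 67,000 compounds, about 40 of them at 50% or above in at least one test.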

| # | SMILES | effect |
|---|---|---|
| 1 | `c1cncc(-n2cnnc2CCCN2CCOCC2)c1` | -3.609% |
| 2 | `CN(C)C(=O)CN1C(=O)CCC12CCN(Cc1ccc(F)cc1)CC2` | 2.418% |
| 3 | `Cc1nccc(CNC(=O)CCc2c(C)nc3cc(O)nn3c2C)n1` | 3.742% |
| 4 | `Cc1ccc2c(c1)C(=O)NCC1(CCN(Cc3ccccc3)CC1)O2` | -4.337% |
| 5 | `Cc1nc(NCCC23CCCN2CCC3)cc(C2CCCNC2)n1` (configuration not stated) | -36.27% |
| 6 | `CC(C)N(C)S(=O)(=O)N(Cc1cccs1)Cc1cccs1` | -7.683% |
| 7 | `COCCNC(=O)c1c(-n2cnnn2)sc2c1CCCC2` | 0.8861% |
| 8 | `NC(=O)C1(c2cnccn2)CCCN1Cc1ccncc1` (configuration not stated) | 2.179% |
| 9 | `O=C(N1CCOCC1)N1CCOC[C@H](Oc2ccc(C(F)(F)F)cc2)C1` | -2.87% |
| 10 | `CC(C)(N)c1cn(C2CCN(C3CCSCC3)CC2)nn1` | 3.883% |
| 11 | `CN1CCCCC(C2CCN(S(=O)(=O)c3cn(C)cn3)CC2)C1=O` (configuration not stated) | 3.881% |
| 12 | `CC1(Cc2ccc(Cl)cc2)Cc2cc(CCC(=O)O)ccc2O1` (configuration not stated) | -8.612% |
| 13 | `CC(C)=CCN1CCN(CCCc2ccccc2)[C@H]2CS(=O)(=O)C[C@H]21` | 1.44% |
| 14 | `O=C(NCc1ccnc(OCC(F)(F)F)c1)NCC1COCCO1` (configuration not stated) | -1.151% |
| 15 | `COc1cccn(C(C)C(=O)NC2CCCC2)c1=O` (configuration not stated) | 11.9% |
| 16 | `Cc1nnc2n1CCN(CCC(=O)Nc1sccc1C#N)C2` | 11.19% |
| 17 | `Fc1ccc(-c2n[nH]cc2CNCCn2cccn2)cc1` | 7.922% |
| 18 | `COc1ncc(-c2cc(NC3CCCC3)nc3[nH]ccc23)c(OC)n1` | 8.933% |
| 19 | `CCN1CC(C(=O)NC(C)(C)CNC(=O)OC(C)(C)C)CC1=O` (configuration not stated) | -2.643% |
| 20 | `COc1ccc(C(=O)Nc2cccc(C(N)=O)c2)c(OC)n1` | 1.456% |
| 21 | `COc1ccc2c(c1)c(C(=O)Nc1nnn[nH]1)cn2C` | -0.9206% |
| 22 | `CN(CC(C)(CO)CO)C(=O)Nc1cc(Cl)cc(Cl)c1` | 3.608% & 25.73% |
| 23 | `CCNc1ncc(C(=O)NCCc2ccc(C)c(C)c2)cn1` | 0.1242% |
| 24 | `COC(=O)CNC(=O)c1scnc1C` | -8.178% |
| 25 | `OC1(c2cn(C3CCN(C4CCSC4)CC3)nn2)CCCC1` (configuration not stated) | -0.2558% |
| 26 | `CN1CCN(Cc2cn3c(n2)CN(C2CCOCC2)CC3)CC1` | 3.171% |
| 27 | `Cc1ccc(NC2CCN(C(=O)CN(C)C3CC3)CC2)nn1` | 8.877% |
| 28 | `COCCN(C)C[C@@H]1CN(c2nnc(C(C)C)s2)C[C@@H]1CO` | 0.7317% |
| 29 | `COc1cc(C#N)ccc1OCCN1CCC(n2ccnc2)CC1` | 1.789% |
| 30 | `O=C(NC1CC1)C1CCN(c2cccc(C(F)(F)F)n2)CC1` | -4.474% |
| 31 | `O=C(c1ccoc1)N1CC[C@@H]2[C@@H](CC1)OCCN2c1cccnc1` | 2.326% |
| 32 | `CNc1ccc(CC2CCCN(C(=O)c3scnc3C)C2)nn1` (configuration not stated) | 4.369% |
| 33 | `O=C(O)[C@@H]1CN(C(=O)CN2CCCCCC2)C[C@H]1c1ccccc1` | 15.07% |
| 34 | `CNC(=O)Cc1ccccc1NC(=O)N[C@H]1c2ccccc2C[C@H]1O` | 8.516% |
| 35 | `CCCN(C(=O)COC)c1nc2c(s1)CCc1c-2cnn1C` | 1.44% |
| 36 | `CC1CCN(CC(O)CNc2ccccn2)CC1` (configuration not stated) | -12.6% |
| 37 | `CCOc1ccc(-c2ccnc(COc3ccccc3)n2)cc1C(=O)O` | 13.1% |
| 38 | `COCCN1CCCC1c1nccnc1Nc1ncc(C)s1` (configuration not stated) | 2.67% |
| 39 | `Cc1sc2c(C3CCNCC3)nc(Nc3cccc(F)c3)n2c1C` | 1.196% |
| 40 | `CN1CCCC(N(C)C(=O)c2ccc(NC(=O)c3cc[nH]n3)cc2)C1` (configuration not stated) | -1.238% |
| 41 | `Cc1nc(C2CCCN(C(=O)CCCn3cccn3)C2)sc1C` (configuration not stated) | 3.345% |
| 42 | `O=C(NCC1CC1)C1CN(C(=O)Cc2cccs2)CC12CCOCC2` (configuration not stated) | 1.29% |
| 43 | `Fc1cnc(N2CCCC3(CN(Cc4ccncc4)CCO3)C2)nc1` (configuration not stated) | 6.736% |
| 44 | `N#CC1(C(=O)Nc2ccc(OC(F)F)cc2)CCCC1` | -1.266% |
| 45 | `CCN(CC1COc2ccccc2O1)C(=O)NCCCn1cncn1` (configuration not stated) | 5.703% |
| 46 | `CCOc1ccc(C2CC(=O)Nc3c2c(=O)nc2sccn32)cc1` (configuration not stated) | 8.21% |
| 47 | `CCc1c(C)nc2cc(-c3nccn3C)nn2c1N1CCCC(CO)C1` (configuration not stated) | -4.6% |
| 48 | `O=S(=O)(NCC1(O)CCOc2ccccc21)c1ccc(Cl)s1` (configuration not stated) | 5.119% |
| 49 | `Oc1ccc(N2CCC(Cc3ccccc3)CC2)nn1` | 4.403% |
| 50 | `CC[C@H](Cn1ncc2ccccc2c1=O)NC(=O)c1cnc(C)cn1` | 5.276% |
| 51 | `CC(C)(C)n1ncc2c1NC(=O)CC2c1ccc(C(=O)O)cc1` (configuration not stated) | 2.81% |
| 52 | `COc1cccc(CC(=O)NCCc2nnc3n2CCCCC3)c1` | 2.552% |
| 53 | `COC(=O)c1cccc(C(=O)NCc2ccco2)n1` | 1.013% |
| 54 | `Cc1ccccc1CCC1CCCN(Cc2nnc(-c3ccco3)o2)C1` (configuration not stated) | 15.02% |
| 55 | `CCn1nc(C)c(CN2CCC(c3ccn[nH]3)C2)c1C` (configuration not stated) | -6.393% |
| 56 | `CCn1ccnc1CN(C)C(C(=O)O)c1ccc(C(C)(C)C#N)cc1` (configuration not stated) | -1.739% |
| 57 | `CC(C)c1nnsc1CN1CCc2[nH]nc(-c3ccc(F)c(F)c3)c2C1` | 6.452% |
| 58 | `CN(C)CCCNC(=O)c1nc(Cc2c(Cl)cccc2Cl)no1` | -4.245% |
| 59 | `Cn1ccnc1CN1CCN2C[C@H](OCc3cccnc3)C[C@H]2C1` | 1.954% |
| 60 | `CN1CCN(Cc2cn3c(n2)CN(Cc2cccnc2)CC3)CC1` | 4.884% |
| 61 | `COc1ccc(-n2cc(CNC(=O)c3cc[nH]n3)nn2)cc1` | 39.82% & 5.67% |
| 62 | `COCc1ncn2c1CN(S(=O)(=O)c1ccc(C)cc1)CC2` | 2.121% |
| 63 | `O=C([C@@H]1Cc2[nH]cnc2CN1C(=O)NC1CCCCC1)N1CCCC1` | 7.901% |
| 64 | `CCC[C@@H](NC(N)=O)C(=O)N1CCc2ccccc2CC1` | -6.957% |
| 65 | `COc1ccc(OC)c(NC(=O)c2nc3ccccc3n(C)c2=O)c1` | 0.6337% |
| 66 | `C[C@@H]1CN(C(=O)c2ccc(Br)cc2F)CC(C(N)=O)O1` (some centres not stated) | -2.288% |
| 67 | `CN(CCNC(=O)c1cccnc1)S(C)(=O)=O` | -4.545% |
| 68 | `CC(C)CN(c1cn[nH]c1)S(=O)(=O)c1cccc(C#N)c1` | 3.571% |
| 69 | `Cc1cc(CNCc2c(C(C)C)nn(C)c2N2CCOCC2)no1` | 4.177% |
| 70 | `CCc1ccc(CN2CC[C@@H]3CN(S(C)(=O)=O)CCO[C@@H]3C2)o1` | 3.171% |
| 71 | `CCC(C)N(Cc1ccncc1)Cc1ccc(-n2cccn2)cc1` (configuration not stated) | -2.823% |
| 72 | `O=S(=O)(c1ccccc1F)N1CCC(Oc2cccnn2)CC1` | -2.372% |
| 73 | `CN(Cc1nc2ccsc2c(=O)[nH]1)CC1CCCCC1` | 17.36% |
| 74 | `COc1ccc(-n2cccn2)c(CN2CCC3(CCNCC3)C2)c1` | 14.47% |
| 75 | `CCOCc1nc2c(c(NC(COC)c3ccccn3)n1)CCNCC2` (configuration not stated) | 2.036% |
| 76 | `CC(c1ccccn1)N(C)C(=O)CN1CCN(c2ccccn2)CC1` (configuration not stated) | 1.485% |
| 77 | `O=C(c1cnccn1)N1CCN2C[C@H](OCc3ccccc3F)C[C@H]2C1` | 2.447% |
| 78 | `CC(=O)Nc1nc(C(=O)N2CCCC2c2noc(C3CC3)n2)cs1` (configuration not stated) | 37.27% & 6.701% |
| 79 | `Cc1ccc(CCN[C@@H]2c3ccccc3C3(CCNCC3)[C@H]2O)s1` | 2.451% |
| 80 | `COc1ccc(C(C)NCc2cnnn2C)cc1F` (configuration not stated) | 0.9709% |
| 81 | `CN(CCOCC1CC1)C(=O)Nc1ccc([S+](C)[O-])cc1` (configuration not stated) | 2.02% |
| 82 | `COc1nccnc1N1CCC2(CC1)[C@H](O)C[C@@H]2OCCN(C)C` | 1.08% |
| 83 | `CNC(=O)CN1CCN(C(=O)c2ccn(C)c(=O)c2)CC1` | 3.435% |
| 84 | `COC(=O)c1cc(OCC2CCC2)cc(C(=O)N[C@@H]2CNCC[C@H]2O)c1` | -56.5% |
| 85 | `CC(C1CC1)N(C)C(=O)CCn1cccn1` (configuration not stated) | 14.29% |
| 86 | `CCc1nc(C2CCCN2c2ncc(Br)cn2)no1` (configuration not stated) | 4.615% |

The first 4 entries again:

SMILES,effect
c1cncc(-n2cnnc2CCCN2CCOCC2)c1,-3.609%
CN(C)C(=O)CN1C(=O)CCC12CCN(Cc1ccc(F)cc1)CC2,2.418%
Cc1nccc(CNC(=O)CCc2c(C)nc3cc(O)nn3c2C)n1,3.742%
Cc1ccc2c(c1)C(=O)NCC1(CCN(Cc3ccccc3)CC1)O2,-4.337%